From article doi:10.1101/2024.11.01.621566 come the findings set out here.

Assay [1] deals with BD-SUFC (Arabidopsis thaliana). Nature of the assay: two-hybrid.
For assay [2], the target named is BD-SUFB (Arabidopsis thaliana). Put plainly: two-hybrid.
Assay [3] addresses GST-SUFD (Arabidopsis thaliana). Nature of the assay: pull-down.
Assay [4] deals with GST-SUFC (Arabidopsis thaliana). Nature of the assay: pull-down.
Assay [5] has as its target GST-SUFB (Arabidopsis thaliana). Nature of the assay: pull-down.
Assay [6] concerns the target SUFB-cEYFP (Arabidopsis thaliana). Nature of the assay: split reporter.
Assay [7] addresses SUFC-cEYFP (Arabidopsis thaliana). Nature of the assay: split reporter.

Results are given in words; binding and its absence hold for the method and conditions named. A result given as binding can be weak or reduced; the word gives no strength. For some of these results: Tags and fused reporters may be left off the sequences shown. For some of these results: In cells and extracts the contact can be indirect.

B1: AD-CLPS1 (protein, UniProt Q9SX29 1-159)
chain: METAICGRLALAPSSLFNSKSGDKHLVSKGPCVNRSILMTLSTSAALGKGGGVLDKPIIEKTTPGRESEFDLRKSKKIAPPYRVILHNDNFNKREYVVQVLMKVIPGMTVDNAVNIMQEAHINGLAVVIVCAQADAEQHCMQLRGNGLLSSVEPDGGGC
For B1, the binding result in assay [1] and in assay [2] was “binds” each time.

B2: MBP-CLPS1 (protein, UniProt Q9SX29 45-159)
chain: AALGKGGGVLDKPIIEKTTPGRESEFDLRKSKKIAPPYRVILHNDNFNKREYVVQVLMKVIPGMTVDNAVNIMQEAHINGLAVVIVCAQADAEQHCMQLRGNGLLSSVEPDGGGC
Turning to B2, the binding result in assay [3], in assay [4] and in assay [5] was “binds” throughout.

B3: CLPS1-nEYFP (protein, UniProt Q9SX29 45-159)
chain: AALGKGGGVLDKPIIEKTTPGRESEFDLRKSKKIAPPYRVILHNDNFNKREYVVQVLMKVIPGMTVDNAVNIMQEAHINGLAVVIVCAQADAEQHCMQLRGNGLLSSVEPDGGGC
Regarding B3, the binding result in assay [6] and in assay [7] was “binds” each time.
